Data as given in PMC6367972.
Results are given in words; binding and its absence hold for the method and conditions named. Binding seen in cells or lysates may run through a third protein. Some binding calls cover weakened binding; strength is not graded here.

By UniProt entry, the sequences of proteins in these tests, tags left out.
UniProt O14964: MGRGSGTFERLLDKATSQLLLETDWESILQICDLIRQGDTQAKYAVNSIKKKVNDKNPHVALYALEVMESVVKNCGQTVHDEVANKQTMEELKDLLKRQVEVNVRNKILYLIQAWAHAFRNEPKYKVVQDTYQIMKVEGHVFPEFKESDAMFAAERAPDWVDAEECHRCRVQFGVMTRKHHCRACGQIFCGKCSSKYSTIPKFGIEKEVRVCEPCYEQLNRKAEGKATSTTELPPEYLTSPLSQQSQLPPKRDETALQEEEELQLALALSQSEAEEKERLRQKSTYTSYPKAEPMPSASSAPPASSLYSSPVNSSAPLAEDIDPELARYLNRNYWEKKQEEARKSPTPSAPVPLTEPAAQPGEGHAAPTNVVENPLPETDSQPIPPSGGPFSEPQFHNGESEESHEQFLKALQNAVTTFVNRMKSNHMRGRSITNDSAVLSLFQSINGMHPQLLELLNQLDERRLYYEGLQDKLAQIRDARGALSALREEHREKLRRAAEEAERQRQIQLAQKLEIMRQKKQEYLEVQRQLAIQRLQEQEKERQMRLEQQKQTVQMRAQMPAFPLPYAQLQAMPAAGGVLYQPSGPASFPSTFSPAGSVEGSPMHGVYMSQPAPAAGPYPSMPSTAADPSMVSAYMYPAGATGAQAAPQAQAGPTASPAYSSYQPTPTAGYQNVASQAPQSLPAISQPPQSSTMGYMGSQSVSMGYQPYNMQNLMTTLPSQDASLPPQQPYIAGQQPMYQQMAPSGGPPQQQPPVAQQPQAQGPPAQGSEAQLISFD
UniProt O43707: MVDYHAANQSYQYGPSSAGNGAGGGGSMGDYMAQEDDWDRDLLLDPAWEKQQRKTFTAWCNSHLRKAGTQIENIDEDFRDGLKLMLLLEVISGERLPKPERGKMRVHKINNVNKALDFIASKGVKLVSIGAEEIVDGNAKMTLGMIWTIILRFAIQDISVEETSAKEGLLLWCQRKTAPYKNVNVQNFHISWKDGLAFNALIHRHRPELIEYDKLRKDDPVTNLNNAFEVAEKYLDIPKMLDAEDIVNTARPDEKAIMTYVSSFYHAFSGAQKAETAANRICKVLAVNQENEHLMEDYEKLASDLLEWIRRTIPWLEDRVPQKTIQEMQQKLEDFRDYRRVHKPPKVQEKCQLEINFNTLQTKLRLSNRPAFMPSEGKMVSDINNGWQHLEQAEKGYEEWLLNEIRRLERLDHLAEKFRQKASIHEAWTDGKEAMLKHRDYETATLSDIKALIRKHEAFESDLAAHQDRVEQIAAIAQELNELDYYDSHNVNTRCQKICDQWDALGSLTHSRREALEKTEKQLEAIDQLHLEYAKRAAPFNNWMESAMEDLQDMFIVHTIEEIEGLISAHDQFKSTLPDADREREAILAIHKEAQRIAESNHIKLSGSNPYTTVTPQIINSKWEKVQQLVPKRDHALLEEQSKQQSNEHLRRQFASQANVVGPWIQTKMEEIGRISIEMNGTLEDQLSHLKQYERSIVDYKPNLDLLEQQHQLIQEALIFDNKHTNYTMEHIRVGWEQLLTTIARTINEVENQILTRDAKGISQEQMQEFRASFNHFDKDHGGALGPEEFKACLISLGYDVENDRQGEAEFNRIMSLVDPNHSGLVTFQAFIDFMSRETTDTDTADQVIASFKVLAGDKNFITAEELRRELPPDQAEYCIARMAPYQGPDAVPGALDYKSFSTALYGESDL

T1: CLEC16A (endogenous, parental YTS NK cells) (human (endogenous in YTS)) (UniProt Q2KHT3)
T1 sequence: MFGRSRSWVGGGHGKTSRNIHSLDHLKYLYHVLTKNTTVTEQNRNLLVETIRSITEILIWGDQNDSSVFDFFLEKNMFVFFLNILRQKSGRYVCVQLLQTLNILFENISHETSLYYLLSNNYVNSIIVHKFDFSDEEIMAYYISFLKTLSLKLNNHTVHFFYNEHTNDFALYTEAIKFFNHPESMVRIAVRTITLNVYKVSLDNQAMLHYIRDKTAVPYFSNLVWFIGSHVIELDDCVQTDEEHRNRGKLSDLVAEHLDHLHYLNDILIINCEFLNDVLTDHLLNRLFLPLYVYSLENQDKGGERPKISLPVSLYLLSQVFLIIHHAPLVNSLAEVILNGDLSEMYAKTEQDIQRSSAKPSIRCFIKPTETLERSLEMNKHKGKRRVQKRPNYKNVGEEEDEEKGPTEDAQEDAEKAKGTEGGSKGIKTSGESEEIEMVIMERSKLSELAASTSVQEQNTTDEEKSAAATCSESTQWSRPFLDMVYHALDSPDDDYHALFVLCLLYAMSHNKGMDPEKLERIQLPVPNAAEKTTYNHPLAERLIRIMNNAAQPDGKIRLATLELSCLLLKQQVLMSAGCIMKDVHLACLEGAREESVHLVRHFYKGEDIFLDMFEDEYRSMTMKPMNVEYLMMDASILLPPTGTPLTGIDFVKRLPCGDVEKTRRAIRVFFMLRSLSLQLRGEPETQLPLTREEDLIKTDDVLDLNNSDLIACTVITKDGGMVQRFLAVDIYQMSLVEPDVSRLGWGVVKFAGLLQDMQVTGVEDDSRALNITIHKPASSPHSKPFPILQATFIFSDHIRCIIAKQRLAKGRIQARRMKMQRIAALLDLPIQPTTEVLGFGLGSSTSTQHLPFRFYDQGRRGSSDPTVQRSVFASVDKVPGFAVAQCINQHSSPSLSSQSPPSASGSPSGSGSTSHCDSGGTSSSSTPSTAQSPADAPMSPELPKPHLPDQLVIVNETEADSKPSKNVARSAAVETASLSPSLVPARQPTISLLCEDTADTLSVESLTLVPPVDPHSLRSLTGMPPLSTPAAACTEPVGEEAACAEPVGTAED

T2: CLEC16A (stably overexpressed in YTS-CLEC16A NK cells) (human) (UniProt Q2KHT3)
T2 sequence: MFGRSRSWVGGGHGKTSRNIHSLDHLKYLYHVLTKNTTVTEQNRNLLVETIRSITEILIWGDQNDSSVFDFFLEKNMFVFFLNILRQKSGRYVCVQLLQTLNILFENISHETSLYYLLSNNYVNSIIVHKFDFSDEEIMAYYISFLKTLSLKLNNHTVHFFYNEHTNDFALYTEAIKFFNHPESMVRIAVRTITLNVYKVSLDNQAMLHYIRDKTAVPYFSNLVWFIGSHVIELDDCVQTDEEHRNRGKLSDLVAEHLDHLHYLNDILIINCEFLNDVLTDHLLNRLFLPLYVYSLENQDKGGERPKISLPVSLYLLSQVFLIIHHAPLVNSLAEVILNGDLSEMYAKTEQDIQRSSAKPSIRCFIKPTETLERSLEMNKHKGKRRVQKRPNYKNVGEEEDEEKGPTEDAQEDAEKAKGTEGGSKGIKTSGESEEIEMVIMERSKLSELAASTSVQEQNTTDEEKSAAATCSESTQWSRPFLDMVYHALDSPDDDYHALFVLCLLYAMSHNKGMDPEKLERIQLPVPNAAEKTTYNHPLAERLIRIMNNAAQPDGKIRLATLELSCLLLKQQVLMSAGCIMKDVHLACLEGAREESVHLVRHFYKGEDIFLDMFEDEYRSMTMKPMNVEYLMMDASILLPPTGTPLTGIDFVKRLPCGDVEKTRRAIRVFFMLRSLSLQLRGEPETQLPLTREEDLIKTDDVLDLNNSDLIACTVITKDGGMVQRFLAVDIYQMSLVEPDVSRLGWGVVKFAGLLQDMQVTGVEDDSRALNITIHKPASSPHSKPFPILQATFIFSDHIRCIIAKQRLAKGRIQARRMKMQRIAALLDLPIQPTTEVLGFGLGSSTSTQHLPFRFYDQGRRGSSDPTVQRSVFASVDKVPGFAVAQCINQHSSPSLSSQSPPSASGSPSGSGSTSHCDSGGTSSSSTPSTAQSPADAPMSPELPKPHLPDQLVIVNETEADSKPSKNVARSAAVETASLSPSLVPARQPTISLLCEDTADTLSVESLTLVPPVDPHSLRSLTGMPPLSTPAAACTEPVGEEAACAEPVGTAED

T3: Vps16A, a subunit of the class C Vps-HOPS complex (human (endogenous in YTS)) (UniProt Q9H269)
T3 sequence: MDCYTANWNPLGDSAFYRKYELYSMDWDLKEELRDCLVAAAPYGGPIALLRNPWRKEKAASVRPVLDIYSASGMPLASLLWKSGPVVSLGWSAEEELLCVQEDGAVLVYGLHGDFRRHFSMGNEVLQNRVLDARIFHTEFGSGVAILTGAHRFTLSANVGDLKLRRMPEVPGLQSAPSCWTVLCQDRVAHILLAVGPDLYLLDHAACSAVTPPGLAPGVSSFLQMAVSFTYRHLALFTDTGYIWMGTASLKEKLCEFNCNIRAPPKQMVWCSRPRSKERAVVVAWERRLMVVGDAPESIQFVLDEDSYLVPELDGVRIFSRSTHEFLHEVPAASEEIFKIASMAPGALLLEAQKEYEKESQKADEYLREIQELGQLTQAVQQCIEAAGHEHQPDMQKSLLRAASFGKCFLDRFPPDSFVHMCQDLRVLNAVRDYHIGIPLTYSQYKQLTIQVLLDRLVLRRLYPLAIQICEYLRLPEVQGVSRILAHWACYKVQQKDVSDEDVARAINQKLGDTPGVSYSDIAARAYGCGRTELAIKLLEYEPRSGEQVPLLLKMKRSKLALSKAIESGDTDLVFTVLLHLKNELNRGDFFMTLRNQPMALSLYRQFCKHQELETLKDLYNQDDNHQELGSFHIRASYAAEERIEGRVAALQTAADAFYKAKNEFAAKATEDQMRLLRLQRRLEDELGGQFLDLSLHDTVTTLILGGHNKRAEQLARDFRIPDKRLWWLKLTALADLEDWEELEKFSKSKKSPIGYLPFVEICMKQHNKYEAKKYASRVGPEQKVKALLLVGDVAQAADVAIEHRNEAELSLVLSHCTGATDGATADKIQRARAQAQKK


Tests used:
[1] = biological target: T1, CLEC16A (endogenous, parental YTS NK cells) (human (endogenous in YTS)); experiment: co-IP; lysates of YTS and YTS-CLEC16A cells (IP-lysis buffer), pre-cleared, precipitated with CLEC16A antibody (IgG as control) and agarose G beads at 4°C; immunoblot of the partners
[2] = biological target: T2, CLEC16A (stably overexpressed in YTS-CLEC16A NK cells) (human); experiment: as above
[3] = biological target: ESCRT protein-Hrs (human (endogenous in YTS)) (UniProt O14964); experiment: co-IP; reverse co-IP: lysates of YTS and YTS-CLEC16A cells precipitated with Vps-16A, Hrs or CD226 antibody and agarose G beads at 4°C; immunoblot for CLEC16A
[4] = biological target: T3, Vps16A, a subunit of the class C Vps-HOPS complex (human (endogenous in YTS)); experiment: as above

| binding [1] | binding [2] | binding [3] | binding [4] | Molecule |
| --- | --- | --- | --- | --- |
| binds |  |  |  | Actinin-4 (from UniProt O43707 1-911) |
| binds | binds |  |  | ESCRT protein-Hrs (from UniProt O14964 1-777) |
| binds | binds |  |  | Vps16A, a subunit of the class C Vps-HOPS complex (protein, UniProt Q9H269 1-839) MDCYTANWNPLGDSAFYRKYELYSMDWDLKEELRDCLVAAAPYGGPIALLRNPWRKEKAASVRPVLDIYSASGMPLASLLWKSGPVVSLGWSAEEELLCVQEDGAVLVYGLHGDFRRHFSMGNEVLQNRVLDARIFHTEFGSGVAILTGAHRFTLSANVGDLKLRRMPEVPGLQSAPSCWTVLCQDRVAHILLAVGPDLYLLDHAACSAVTPPGLAPGVSSFLQMAVSFTYRHLALFTDTGYIWMGTASLKEKLCEFNCNIRAPPKQMVWCSRPRSKERAVVVAWERRLMVVGDAPESIQFVLDEDSYLVPELDGVRIFSRSTHEFLHEVPAASEEIFKIASMAPGALLLEAQKEYEKESQKADEYLREIQELGQLTQAVQQCIEAAGHEHQPDMQKSLLRAASFGKCFLDRFPPDSFVHMCQDLRVLNAVRDYHIGIPLTYSQYKQLTIQVLLDRLVLRRLYPLAIQICEYLRLPEVQGVSRILAHWACYKVQQKDVSDEDVARAINQKLGDTPGVSYSDIAARAYGCGRTELAIKLLEYEPRSGEQVPLLLKMKRSKLALSKAIESGDTDLVFTVLLHLKNELNRGDFFMTLRNQPMALSLYRQFCKHQELETLKDLYNQDDNHQELGSFHIRASYAAEERIEGRVAALQTAADAFYKAKNEFAAKATEDQMRLLRLQRRLEDELGGQFLDLSLHDTVTTLILGGHNKRAEQLARDFRIPDKRLWWLKLTALADLEDWEELEKFSKSKKSPIGYLPFVEICMKQHNKYEAKKYASRVGPEQKVKALLLVGDVAQAADVAIEHRNEAELSLVLSHCTGATDGATADKIQRARAQAQKK |
|  |  | binds | binds | CLEC16A (endogenous, parental YTS NK cells) (protein, UniProt Q2KHT3 1-1053) MFGRSRSWVGGGHGKTSRNIHSLDHLKYLYHVLTKNTTVTEQNRNLLVETIRSITEILIWGDQNDSSVFDFFLEKNMFVFFLNILRQKSGRYVCVQLLQTLNILFENISHETSLYYLLSNNYVNSIIVHKFDFSDEEIMAYYISFLKTLSLKLNNHTVHFFYNEHTNDFALYTEAIKFFNHPESMVRIAVRTITLNVYKVSLDNQAMLHYIRDKTAVPYFSNLVWFIGSHVIELDDCVQTDEEHRNRGKLSDLVAEHLDHLHYLNDILIINCEFLNDVLTDHLLNRLFLPLYVYSLENQDKGGERPKISLPVSLYLLSQVFLIIHHAPLVNSLAEVILNGDLSEMYAKTEQDIQRSSAKPSIRCFIKPTETLERSLEMNKHKGKRRVQKRPNYKNVGEEEDEEKGPTEDAQEDAEKAKGTEGGSKGIKTSGESEEIEMVIMERSKLSELAASTSVQEQNTTDEEKSAAATCSESTQWSRPFLDMVYHALDSPDDDYHALFVLCLLYAMSHNKGMDPEKLERIQLPVPNAAEKTTYNHPLAERLIRIMNNAAQPDGKIRLATLELSCLLLKQQVLMSAGCIMKDVHLACLEGAREESVHLVRHFYKGEDIFLDMFEDEYRSMTMKPMNVEYLMMDASILLPPTGTPLTGIDFVKRLPCGDVEKTRRAIRVFFMLRSLSLQLRGEPETQLPLTREEDLIKTDDVLDLNNSDLIACTVITKDGGMVQRFLAVDIYQMSLVEPDVSRLGWGVVKFAGLLQDMQVTGVEDDSRALNITIHKPASSPHSKPFPILQATFIFSDHIRCIIAKQRLAKGRIQARRMKMQRIAALLDLPIQPTTEVLGFGLGSSTSTQHLPFRFYDQGRRGSSDPTVQRSVFASVDKVPGFAVAQCINQHSSPSLSSQSPPSASGSPSGSGSTSHCDSGGTSSSSTPSTAQSPADAPMSPELPKPHLPDQLVIVNETEADSKPSKNVARSAAVETASLSPSLVPARQPTISLLCEDTADTLSVESLTLVPPVDPHSLRSLTGMPPLSTPAAACTEPVGEEAACAEPVGTAED |
|  |  | binds | binds | CLEC16A (stably overexpressed in YTS-CLEC16A NK cells) (protein, UniProt Q2KHT3 1-1053) MFGRSRSWVGGGHGKTSRNIHSLDHLKYLYHVLTKNTTVTEQNRNLLVETIRSITEILIWGDQNDSSVFDFFLEKNMFVFFLNILRQKSGRYVCVQLLQTLNILFENISHETSLYYLLSNNYVNSIIVHKFDFSDEEIMAYYISFLKTLSLKLNNHTVHFFYNEHTNDFALYTEAIKFFNHPESMVRIAVRTITLNVYKVSLDNQAMLHYIRDKTAVPYFSNLVWFIGSHVIELDDCVQTDEEHRNRGKLSDLVAEHLDHLHYLNDILIINCEFLNDVLTDHLLNRLFLPLYVYSLENQDKGGERPKISLPVSLYLLSQVFLIIHHAPLVNSLAEVILNGDLSEMYAKTEQDIQRSSAKPSIRCFIKPTETLERSLEMNKHKGKRRVQKRPNYKNVGEEEDEEKGPTEDAQEDAEKAKGTEGGSKGIKTSGESEEIEMVIMERSKLSELAASTSVQEQNTTDEEKSAAATCSESTQWSRPFLDMVYHALDSPDDDYHALFVLCLLYAMSHNKGMDPEKLERIQLPVPNAAEKTTYNHPLAERLIRIMNNAAQPDGKIRLATLELSCLLLKQQVLMSAGCIMKDVHLACLEGAREESVHLVRHFYKGEDIFLDMFEDEYRSMTMKPMNVEYLMMDASILLPPTGTPLTGIDFVKRLPCGDVEKTRRAIRVFFMLRSLSLQLRGEPETQLPLTREEDLIKTDDVLDLNNSDLIACTVITKDGGMVQRFLAVDIYQMSLVEPDVSRLGWGVVKFAGLLQDMQVTGVEDDSRALNITIHKPASSPHSKPFPILQATFIFSDHIRCIIAKQRLAKGRIQARRMKMQRIAALLDLPIQPTTEVLGFGLGSSTSTQHLPFRFYDQGRRGSSDPTVQRSVFASVDKVPGFAVAQCINQHSSPSLSSQSPPSASGSPSGSGSTSHCDSGGTSSSSTPSTAQSPADAPMSPELPKPHLPDQLVIVNETEADSKPSKNVARSAAVETASLSPSLVPARQPTISLLCEDTADTLSVESLTLVPPVDPHSLRSLTGMPPLSTPAAACTEPVGEEAACAEPVGTAED |
